Values quoted from earlier work in EP3895695A1, “SUPERCRITICAL CARBON DIOXIDE-BASED METHODOLOGY TO FORMULATE BIOACTIVE PREPARATIONS” (Universidad Autónoma de Madrid, priority 2020, dated 2021).

Details: at 393.15 K; cited from earlier work

## O=c1c(O)c(-c2ccc(O)c(O)c2)oc2cc(O)cc(O)c12 [quercetin, 2-(3,4-Dihydroxyphenyl)-3,5,7-trihydroxy-4H-1-benzopyran-4-one,3,3',4',5,6-Pentahydroxyflavone - Quercetin]
  solubility of quercetin in a medium chain triacylglycerol mixture: 1.77 ± 0.29 mg/g
